Reference: the supplement of paper PMC12067093, “Discovery and optimisation of a covalent ligand for TRIM25 and its application to targeted protein ubiquitination” (Chemical Science, 2025)
The list shows a part of the results.

Amino acid sequences for entries named in this document (tags omitted). A change or cut given only in a name is not applied to a line headed by its entry.
UniProt Q14511: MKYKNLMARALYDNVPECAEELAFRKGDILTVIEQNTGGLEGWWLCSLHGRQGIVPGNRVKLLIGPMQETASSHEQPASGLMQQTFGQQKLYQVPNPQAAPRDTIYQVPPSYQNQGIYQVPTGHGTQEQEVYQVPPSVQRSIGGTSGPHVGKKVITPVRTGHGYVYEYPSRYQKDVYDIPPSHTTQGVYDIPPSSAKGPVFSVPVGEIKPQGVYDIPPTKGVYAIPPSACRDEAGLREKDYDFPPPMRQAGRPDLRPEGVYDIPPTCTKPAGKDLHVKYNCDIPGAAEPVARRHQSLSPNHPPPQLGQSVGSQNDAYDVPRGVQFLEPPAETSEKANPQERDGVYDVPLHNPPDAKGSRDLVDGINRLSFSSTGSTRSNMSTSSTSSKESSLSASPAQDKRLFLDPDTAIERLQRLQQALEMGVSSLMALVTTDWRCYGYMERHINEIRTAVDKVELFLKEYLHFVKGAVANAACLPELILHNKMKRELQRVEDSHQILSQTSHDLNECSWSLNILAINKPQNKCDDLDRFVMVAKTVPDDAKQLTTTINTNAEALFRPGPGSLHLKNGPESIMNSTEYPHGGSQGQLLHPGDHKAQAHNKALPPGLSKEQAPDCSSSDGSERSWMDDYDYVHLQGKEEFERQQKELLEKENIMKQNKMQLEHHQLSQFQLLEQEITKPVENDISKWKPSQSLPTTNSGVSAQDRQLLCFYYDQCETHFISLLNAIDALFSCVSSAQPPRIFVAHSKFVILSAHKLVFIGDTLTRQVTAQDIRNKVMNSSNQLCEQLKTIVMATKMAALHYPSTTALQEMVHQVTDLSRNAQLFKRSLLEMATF
UniProt P28331, whole entry, looked up: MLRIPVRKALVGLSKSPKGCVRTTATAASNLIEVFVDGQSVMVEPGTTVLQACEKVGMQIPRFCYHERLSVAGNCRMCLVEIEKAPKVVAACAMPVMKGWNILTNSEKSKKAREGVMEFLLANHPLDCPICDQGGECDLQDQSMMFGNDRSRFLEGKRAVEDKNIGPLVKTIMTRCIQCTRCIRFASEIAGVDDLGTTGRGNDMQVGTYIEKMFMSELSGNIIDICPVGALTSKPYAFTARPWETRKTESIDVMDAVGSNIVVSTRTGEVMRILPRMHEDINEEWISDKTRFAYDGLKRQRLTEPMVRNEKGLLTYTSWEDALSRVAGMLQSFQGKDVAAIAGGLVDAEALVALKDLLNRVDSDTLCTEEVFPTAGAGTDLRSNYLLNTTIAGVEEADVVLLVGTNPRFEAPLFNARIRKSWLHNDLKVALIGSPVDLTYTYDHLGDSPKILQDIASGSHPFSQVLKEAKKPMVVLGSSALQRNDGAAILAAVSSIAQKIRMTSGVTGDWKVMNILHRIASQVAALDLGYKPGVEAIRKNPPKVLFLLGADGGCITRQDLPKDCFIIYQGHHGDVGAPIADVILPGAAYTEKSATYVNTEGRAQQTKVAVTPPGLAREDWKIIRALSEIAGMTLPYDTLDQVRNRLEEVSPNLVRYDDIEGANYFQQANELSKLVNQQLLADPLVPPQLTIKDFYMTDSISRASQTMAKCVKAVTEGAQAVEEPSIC
UniProt P19838: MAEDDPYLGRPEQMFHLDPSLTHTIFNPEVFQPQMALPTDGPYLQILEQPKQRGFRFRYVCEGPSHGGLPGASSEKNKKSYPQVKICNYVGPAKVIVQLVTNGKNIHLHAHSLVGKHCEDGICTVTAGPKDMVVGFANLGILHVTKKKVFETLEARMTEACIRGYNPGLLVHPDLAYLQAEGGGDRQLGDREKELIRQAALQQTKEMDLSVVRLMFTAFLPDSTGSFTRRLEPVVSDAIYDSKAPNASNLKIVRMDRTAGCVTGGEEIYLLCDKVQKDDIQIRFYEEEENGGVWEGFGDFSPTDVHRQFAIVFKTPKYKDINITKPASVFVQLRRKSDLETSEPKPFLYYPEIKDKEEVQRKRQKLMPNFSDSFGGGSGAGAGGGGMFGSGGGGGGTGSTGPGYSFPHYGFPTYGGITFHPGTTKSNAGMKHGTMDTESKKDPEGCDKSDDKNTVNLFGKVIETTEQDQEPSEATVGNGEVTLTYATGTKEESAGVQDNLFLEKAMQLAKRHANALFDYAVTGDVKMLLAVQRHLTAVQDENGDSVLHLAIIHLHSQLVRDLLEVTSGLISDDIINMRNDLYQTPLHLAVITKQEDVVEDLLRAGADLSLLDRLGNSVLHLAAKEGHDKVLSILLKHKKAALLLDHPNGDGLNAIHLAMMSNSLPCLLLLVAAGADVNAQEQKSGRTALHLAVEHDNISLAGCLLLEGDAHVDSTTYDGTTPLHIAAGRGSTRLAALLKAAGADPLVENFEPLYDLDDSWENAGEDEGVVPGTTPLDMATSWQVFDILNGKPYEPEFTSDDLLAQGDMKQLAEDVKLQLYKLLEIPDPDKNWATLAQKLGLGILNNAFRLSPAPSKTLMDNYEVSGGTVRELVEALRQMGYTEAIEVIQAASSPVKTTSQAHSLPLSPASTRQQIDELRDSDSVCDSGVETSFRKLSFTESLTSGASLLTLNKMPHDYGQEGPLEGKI
UniProt Q86Y39, whole entry, looked up: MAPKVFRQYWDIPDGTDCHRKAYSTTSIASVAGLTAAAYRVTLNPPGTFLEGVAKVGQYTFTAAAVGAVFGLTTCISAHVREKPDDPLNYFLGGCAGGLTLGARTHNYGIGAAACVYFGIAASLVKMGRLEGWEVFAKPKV
UniProt Q96IV0: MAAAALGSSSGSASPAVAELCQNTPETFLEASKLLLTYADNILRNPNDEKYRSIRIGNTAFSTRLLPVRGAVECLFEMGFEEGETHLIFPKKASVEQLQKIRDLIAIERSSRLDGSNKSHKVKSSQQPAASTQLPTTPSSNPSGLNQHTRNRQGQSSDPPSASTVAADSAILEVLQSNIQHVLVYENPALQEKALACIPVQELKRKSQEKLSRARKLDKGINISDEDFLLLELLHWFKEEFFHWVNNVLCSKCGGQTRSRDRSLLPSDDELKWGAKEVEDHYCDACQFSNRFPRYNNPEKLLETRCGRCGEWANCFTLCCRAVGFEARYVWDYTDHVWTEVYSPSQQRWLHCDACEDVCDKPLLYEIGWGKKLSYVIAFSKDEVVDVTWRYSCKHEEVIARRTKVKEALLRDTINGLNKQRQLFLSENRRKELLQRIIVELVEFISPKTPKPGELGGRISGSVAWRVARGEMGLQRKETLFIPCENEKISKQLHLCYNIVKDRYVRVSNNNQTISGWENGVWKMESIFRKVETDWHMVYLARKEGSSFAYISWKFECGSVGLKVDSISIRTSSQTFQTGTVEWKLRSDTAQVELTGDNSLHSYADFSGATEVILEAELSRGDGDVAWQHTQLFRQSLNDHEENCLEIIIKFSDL
UniProt O60524: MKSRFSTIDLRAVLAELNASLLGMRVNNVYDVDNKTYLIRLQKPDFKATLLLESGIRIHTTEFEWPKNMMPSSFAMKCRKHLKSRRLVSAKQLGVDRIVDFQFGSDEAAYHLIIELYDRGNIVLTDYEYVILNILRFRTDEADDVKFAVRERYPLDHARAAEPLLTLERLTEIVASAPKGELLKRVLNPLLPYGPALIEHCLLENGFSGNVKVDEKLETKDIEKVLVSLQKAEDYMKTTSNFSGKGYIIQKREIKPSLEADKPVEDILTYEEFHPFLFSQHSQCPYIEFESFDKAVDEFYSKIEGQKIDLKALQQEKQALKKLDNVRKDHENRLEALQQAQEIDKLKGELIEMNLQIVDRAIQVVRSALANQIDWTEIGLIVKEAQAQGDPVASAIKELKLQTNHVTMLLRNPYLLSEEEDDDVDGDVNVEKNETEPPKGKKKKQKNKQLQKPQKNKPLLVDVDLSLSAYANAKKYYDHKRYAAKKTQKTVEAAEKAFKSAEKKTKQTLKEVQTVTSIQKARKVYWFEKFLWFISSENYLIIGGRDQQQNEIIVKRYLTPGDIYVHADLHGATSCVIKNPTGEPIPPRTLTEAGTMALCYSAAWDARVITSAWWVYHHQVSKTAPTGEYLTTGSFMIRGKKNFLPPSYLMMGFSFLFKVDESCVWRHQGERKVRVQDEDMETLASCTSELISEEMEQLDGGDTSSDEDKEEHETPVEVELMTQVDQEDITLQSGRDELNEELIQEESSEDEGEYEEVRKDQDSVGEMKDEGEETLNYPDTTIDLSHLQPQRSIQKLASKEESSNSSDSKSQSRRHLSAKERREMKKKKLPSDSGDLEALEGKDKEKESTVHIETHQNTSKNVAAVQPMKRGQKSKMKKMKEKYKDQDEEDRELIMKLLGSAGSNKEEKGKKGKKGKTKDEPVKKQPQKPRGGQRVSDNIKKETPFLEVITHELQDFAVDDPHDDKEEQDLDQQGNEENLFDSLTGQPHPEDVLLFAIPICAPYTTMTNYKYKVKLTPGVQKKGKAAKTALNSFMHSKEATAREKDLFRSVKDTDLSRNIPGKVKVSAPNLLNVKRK
UniProt P19404, whole entry: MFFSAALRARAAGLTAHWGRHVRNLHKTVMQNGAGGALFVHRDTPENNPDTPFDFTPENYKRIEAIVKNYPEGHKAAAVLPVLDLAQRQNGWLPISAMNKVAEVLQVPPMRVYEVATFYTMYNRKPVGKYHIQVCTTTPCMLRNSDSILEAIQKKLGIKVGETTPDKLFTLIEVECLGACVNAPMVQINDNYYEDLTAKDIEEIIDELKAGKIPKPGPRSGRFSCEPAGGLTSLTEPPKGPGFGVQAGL
UniProt Q8TD19: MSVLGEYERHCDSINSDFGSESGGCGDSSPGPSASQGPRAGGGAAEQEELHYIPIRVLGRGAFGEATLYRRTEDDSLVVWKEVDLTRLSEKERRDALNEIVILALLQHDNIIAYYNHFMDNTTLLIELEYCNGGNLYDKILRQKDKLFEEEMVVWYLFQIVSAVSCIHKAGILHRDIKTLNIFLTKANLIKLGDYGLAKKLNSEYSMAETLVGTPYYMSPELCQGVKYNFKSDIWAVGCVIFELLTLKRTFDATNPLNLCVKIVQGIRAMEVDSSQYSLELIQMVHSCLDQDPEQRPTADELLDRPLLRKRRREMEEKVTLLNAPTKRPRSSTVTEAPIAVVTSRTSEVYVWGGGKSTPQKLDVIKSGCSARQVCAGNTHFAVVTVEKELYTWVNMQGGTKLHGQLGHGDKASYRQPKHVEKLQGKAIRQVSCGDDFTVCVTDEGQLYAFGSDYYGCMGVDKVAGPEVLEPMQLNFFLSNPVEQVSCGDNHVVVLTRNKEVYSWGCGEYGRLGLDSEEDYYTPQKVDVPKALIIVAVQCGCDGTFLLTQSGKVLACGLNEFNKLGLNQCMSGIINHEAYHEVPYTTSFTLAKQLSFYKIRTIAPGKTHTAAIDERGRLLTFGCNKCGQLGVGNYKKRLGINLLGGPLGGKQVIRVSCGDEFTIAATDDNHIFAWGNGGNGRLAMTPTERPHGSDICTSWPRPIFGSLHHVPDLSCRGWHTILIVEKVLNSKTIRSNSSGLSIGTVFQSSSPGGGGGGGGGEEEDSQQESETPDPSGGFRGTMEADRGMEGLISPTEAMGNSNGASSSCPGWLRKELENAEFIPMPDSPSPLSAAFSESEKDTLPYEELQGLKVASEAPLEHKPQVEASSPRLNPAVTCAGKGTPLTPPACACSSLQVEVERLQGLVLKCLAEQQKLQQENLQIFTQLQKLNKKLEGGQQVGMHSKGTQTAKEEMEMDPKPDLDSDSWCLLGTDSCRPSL
UniProt Q86X76: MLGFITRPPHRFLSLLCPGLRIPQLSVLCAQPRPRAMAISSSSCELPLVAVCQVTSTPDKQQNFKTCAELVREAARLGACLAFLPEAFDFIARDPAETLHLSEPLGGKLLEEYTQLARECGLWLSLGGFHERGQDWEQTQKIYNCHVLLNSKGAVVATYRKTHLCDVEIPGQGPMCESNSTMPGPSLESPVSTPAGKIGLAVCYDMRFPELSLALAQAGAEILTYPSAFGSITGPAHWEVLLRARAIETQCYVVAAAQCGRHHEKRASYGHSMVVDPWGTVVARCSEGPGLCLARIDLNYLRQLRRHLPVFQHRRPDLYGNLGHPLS
UniProt P08651, whole entry, looked up: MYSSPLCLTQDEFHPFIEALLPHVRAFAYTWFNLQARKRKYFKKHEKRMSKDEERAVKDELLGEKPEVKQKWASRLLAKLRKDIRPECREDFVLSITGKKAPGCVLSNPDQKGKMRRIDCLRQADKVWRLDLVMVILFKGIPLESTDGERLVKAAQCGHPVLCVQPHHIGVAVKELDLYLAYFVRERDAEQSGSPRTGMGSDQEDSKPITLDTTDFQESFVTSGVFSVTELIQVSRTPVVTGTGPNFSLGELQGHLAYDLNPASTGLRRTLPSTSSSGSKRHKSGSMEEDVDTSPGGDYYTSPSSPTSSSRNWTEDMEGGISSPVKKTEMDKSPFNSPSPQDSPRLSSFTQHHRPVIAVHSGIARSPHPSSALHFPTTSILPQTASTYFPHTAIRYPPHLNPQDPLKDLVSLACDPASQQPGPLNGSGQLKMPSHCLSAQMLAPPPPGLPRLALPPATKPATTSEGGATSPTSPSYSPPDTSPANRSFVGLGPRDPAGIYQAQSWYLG

Compound: CC1Cc2ccccc2N1C(=O)C1CCCN(C1)C(=O)CCl (mixture of isomers) [TRIM25 ligand 11 (diastereomer mixture)]
Experiment: probe-labelled cysteine peptide fold change vs DMSO (competition) (log2 fold change); higher = less target engagement (more negative = stronger competition)
Settings: THP-1, incubation time: 4 h
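Note: competitive chemoproteomic profiling in live THP-1 cells with an iodoacetamide desthiobiotin (IA-DTB) probe, comparing probe-labelled peptide intensities in compound-treated cells against DMSO-treated controls.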

| Target | probe-labelled cysteine peptide fold change (10 µM) | probe-labelled cysteine peptide fold change (50 µM) |
| --- | --- | --- |
| NEDD9_Q14511_46_KGDILTVIEQNTGGLEGWWLCSLHGR (UniProt Q14511) | -0.027 | 0.0648 |
| NDUFS1_P28331_367_VDSDTLCTEEVFPTAGAGTDLR (UniProt P28331) | -0.0794 | -0.394 |
| NFKB1_P19838_87_ICNYVGPAK (UniProt P19838) | -0.0138 | 0.173 |
| NDUFA11_Q86Y39_18_QYWDIPDGTDCHR (UniProt Q86Y39) | 0.1 | 0.372 |
| NIFK_Q9BYG3_269_QPISCVK (UniProt Q9BYG3) | 0.199 | -0.0418 |
| NGLY1_Q96IV0_286_EVEDHYCDACQFSNR (UniProt Q96IV0) | 0.0504 | 0.167 |
| NEMF_O60524_663_VDESCVWR (UniProt O60524) | 0.233 | 0.569 |
| NFATC2_Q13469_355_HIYPAVEFLGPCEQGER (UniProt Q13469) | -0.239 | -0.213 |
| NDUFV2_P19404_135+140_YHIQVCTTTPCMLR (UniProt P19404) | 0.0444 | -0.234 |
| NEK9_Q8TD19_715_PIFGSLHHVPDLSCR (UniProt Q8TD19) | 0.134 | -0.0999 |
| NIT1_Q86X76-2_16_AISSSSCELPLVAVCQVTSTPDK (UniProt Q86X76) | -0.208 | -0.189 |
| NFIC_P08651_157+163_AAQCGHPVLCVQPHHIGVAVK (UniProt P08651) | -0.117 | -0.0985 |
| NGLY1_Q96IV0_484_KETLFIPCENEK (UniProt Q96IV0) | 0.0236 | 0.104 |
| NDUFS1_P28331_226_MFMSELSGNIIDICPVGALTSK (UniProt P28331) | 0.296 | -0.099 |

Record cards, as listed above. Values in the order: probe-labelled cysteine peptide fold change (10 µM)	probe-labelled cysteine peptide fold change (50 µM)
NEMF_O60524_663_VDESCVWR (UniProt O60524) as listed: 0.233	0.569
NDUFS1_P28331_226_MFMSELSGNIIDICPVGALTSK (UniProt P28331) as listed: 0.296	-0.099
